Results: the supplement of paper PMC11409438
The list shows a part of the results. Most values come without repeats; read them as rough.

Each compound was assayed on Caenorhabditis elegans ST65 (ncIs13[ajm-1::GFP]) (assay: vulvae per adult worm (MAPK/ERK-dependent vulval induction, MetaXpress) (vulvae/adult); higher = more vulval induction (less MAPK/ERK inhibition)). Settings: 10 µM; exposure time: 4-5 days from L1 at 20°C.

Structure (SMILES) | vulvae per adult worm
CC1(COc2ccc3c(c2)ncn3-c2ccc3cccc(N4CCC(N)CC4)c3n2)COC1 | 0.892
CC(C)(C)c1cc(NC(=O)Nc2ccc(-c3cn4c(n3)sc3cc(OCCN5CCOCC5)ccc34)cc2)no1 [Quizartinib (AC220)] | 1.1
C[C@]12CC[C@@H]3c4ccc(O)cc4C[C@@H](CCCCCCCCC[S+]([O-])CCCC(F)(F)C(F)(F)F)[C@H]3[C@@H]1CC[C@@H]2O (stereo not given in full) [Fulvestrant] | 0.767
Cc1ccc(=O)n(-c2ccccc2)c1 [Pirfenidone] | 1
CCN(CC)CCN(Cc1ccc(-c2ccc(C(F)(F)F)cc2)cc1)C(=O)Cn1c(SCc2ccc(F)cc2)nc(=O)c2c1CCC2 | 1
COc1cc2c(NC3CCN(C(C)C)CC3)nc(N3CCC(F)(F)CC3)nc2cc1OCCCN1CCCC1 | 0.857
Cc1ccc(C(=O)N(CCCN)[C@@H](c2oc3cc(Cl)ccc3c(=O)c2Cc2ccccc2)C(C)C)cc1 | 0.765
O=C(c1cc(Cc2n[nH]c(=O)c3ccccc23)ccc1F)N1CCN(C(=O)C2CC2)CC1 | 0.84
NC(=O)N1CCC(CC(=O)N2CCC([C@H]3c4ncc(Br)cc4CCc4cc(Cl)cc(Br)c43)CC2)CC1 [Lonafarnib] | 0.778
CCOCc1nc2c(N)nc3ccccc3c2n1CC(C)(C)O [Resiquimod] | 1.1
